{"source": "PubChem BioAssay AID602196 (INSERM, 2012)", "test": "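Genes whose knock-down alters cisplatin killing of lung cancer cells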", "cell system": "human A549 lung cancer cells", "knock-down reagent": "siRNA pair against human genes", "time to read-out": "48 h transfection before cisplatin; time from cisplatin to read-out not stated", "treatment": "cisplatin at a dose killing half of control-siRNA cells; exact dose and duration not given", "measurement": "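Cisplatin cell death as a shift from the 50% death seen with control siRNA; siRNAs toxic or growth-blocking alone scored 0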", "direction": "two-siRNA summed score (-2 to +2): higher = both siRNAs protect from cisplatin killing; -2 means both sensitise", "hit rule": "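siRNAs harmful alone (LDH or WST-1) get 0; others get +1 for less and -1 for more cisplatin killing; genes are active when the two siRNAs give the same sign, summing to ±2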", "calls": "active = both siRNAs shift cisplatin killing the same way; inactive = no consistent shift, or siRNA harmful alone", "note": "This is one part, drawn at random, of about 23,000 reagents tested. 455 of all reagents (2%) were called active. 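Active includes both protection and sensitisation; some change values fall well beyond the stated -50 to +50 range.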 Entries without a mark were called inactive. Further read-outs or replicates are left out here. Not given: the amount of reagent."}
{"Gene": "TEX10", "two-siRNA summed score (-2 to +2)": -1}
{"Gene": "ZNF692", "two-siRNA summed score (-2 to +2)": 0}
{"Gene": "SMC5", "two-siRNA summed score (-2 to +2)": 0}
{"Gene": "SYT3", "two-siRNA summed score (-2 to +2)": 1}
{"Gene": "TSPYL2", "two-siRNA summed score (-2 to +2)": 0}
{"Gene": "L2HGDH", "two-siRNA summed score (-2 to +2)": -1}
{"Gene": "ZSWIM9", "two-siRNA summed score (-2 to +2)": 0}
{"Gene": "LINC01940", "two-siRNA summed score (-2 to +2)": "2 (active)"}
{"Gene": "MS4A14", "two-siRNA summed score (-2 to +2)": 1}
{"Gene": "H2AC8", "two-siRNA summed score (-2 to +2)": 0}
{"Gene": "CCR9", "two-siRNA summed score (-2 to +2)": 0}
{"Gene": "HLA-C", "two-siRNA summed score (-2 to +2)": 1}

In a second layout: 2 of the entries above.
| Gene | two-siRNA summed score (-2 to +2) |
| --- | --- |
| MS4A14 | 1 |
| H2AC8 | 0 |
